From publication PMC12158781
Results are given in words; binding and its absence hold for the method and conditions named. In cells and extracts the contact can be indirect. Some entries that bind do so weakly or less than the wild type.

Protein sequences, listed by entry. Tags and fused reporters are not part of them.
UniProt P35222: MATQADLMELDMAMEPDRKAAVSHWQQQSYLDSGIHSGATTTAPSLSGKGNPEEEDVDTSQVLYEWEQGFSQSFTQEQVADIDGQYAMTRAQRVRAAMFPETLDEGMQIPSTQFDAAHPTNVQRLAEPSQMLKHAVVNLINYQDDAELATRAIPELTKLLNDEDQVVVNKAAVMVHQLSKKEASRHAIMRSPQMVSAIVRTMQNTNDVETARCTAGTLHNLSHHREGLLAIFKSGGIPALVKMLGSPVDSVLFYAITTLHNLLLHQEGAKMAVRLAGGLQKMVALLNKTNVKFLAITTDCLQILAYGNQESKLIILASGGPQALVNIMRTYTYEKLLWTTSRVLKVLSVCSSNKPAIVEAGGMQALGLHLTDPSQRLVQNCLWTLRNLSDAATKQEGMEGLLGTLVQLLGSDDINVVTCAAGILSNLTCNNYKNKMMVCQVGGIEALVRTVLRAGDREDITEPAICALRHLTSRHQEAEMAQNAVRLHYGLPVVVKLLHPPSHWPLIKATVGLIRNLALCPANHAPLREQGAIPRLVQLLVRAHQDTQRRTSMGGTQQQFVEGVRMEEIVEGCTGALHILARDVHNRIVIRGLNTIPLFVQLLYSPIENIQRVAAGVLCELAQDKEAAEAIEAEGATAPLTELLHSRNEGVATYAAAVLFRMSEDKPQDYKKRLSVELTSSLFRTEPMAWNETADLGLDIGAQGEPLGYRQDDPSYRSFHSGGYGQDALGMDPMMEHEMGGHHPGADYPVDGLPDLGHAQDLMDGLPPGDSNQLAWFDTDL

Columns and labels:
[1] = target: β-catenin (human (endogenous in THP-1)) (UniProt P35222); assay: condition: only cells without combo treatment (vehicle or a single inhibitor); co-IP; THP-1 cells treated with vehicle or a single inhibitor (GSK-LSD1 or LY2090314) for 5 days; 1.5-2 mg cleared lysate, 10 µg antibody pre-bound to protein G Dynabeads, overnight at 4 °C, IP buffer 10 mM Tris-HCl pH 7.6, 150 mM NaCl, 0.2% NP-40; western blot
[2] = target: β-catenin (human (endogenous in THP-1)) (UniProt P35222); assay: co-IP; THP-1 cells treated with the combination of GSK-LSD1 and LY2090314 (combo) for 5 days; 1.5-2 mg cleared lysate, 10 µg antibody pre-bound to protein G Dynabeads, overnight at 4 °C, IP buffer 10 mM Tris-HCl pH 7.6, 150 mM NaCl, 0.2% NP-40; western blot

B1: IRF7 (protein, UniProt Q92985 1-503)
chain: MALAPERAAPRVLFGEWLLGEISSGCYEGLQWLDEARTCFRVPWKHFARKDLSEADARIFKAWAVARGRWPPSSRGGGPPPEAETAERAGWKTNFRCALRSTRRFVMLRDNSGDPADPHKVYALSRELCWREGPGTDQTEAEAPAAVPPPQGGPPGPFLAHTHAGLQAPGPLPAPAGDKGDLLLQAVQQSCLADHLLTASWGADPVPTKAPGEGQEGLPLTGACAGGPGLPAGELYGWAVETTPSPGPQPAALTTGEAAAPESPHQAEPYLSPSPSACTAVQEPSPGALDVTIMYKGRTVLQKVVGHPSCTFLYGPPDPAVRATDPQQVAFPSPAELPDQKQLRYTEELLRHVAPGLHLELRGPQLWARRMGKCKVYWEVGGPPGSASPSTPACLLPRNCDTPIFDFRVFFQELVEFRARQRRGSPRYTIYLGFGQDLSAGRPKEKSLVLVKLEPWLCRVHLEGTQREGVSSLDSSSLSLCLSSANSLYDDIECFLMELEQPA
- binding [1]: no binding
- binding [2]: binds
